For the assay, the target named is T1, ST13-1xFLAG (recombinant wild-type human St13) (human) (UniProt P50502).
T1 sequence: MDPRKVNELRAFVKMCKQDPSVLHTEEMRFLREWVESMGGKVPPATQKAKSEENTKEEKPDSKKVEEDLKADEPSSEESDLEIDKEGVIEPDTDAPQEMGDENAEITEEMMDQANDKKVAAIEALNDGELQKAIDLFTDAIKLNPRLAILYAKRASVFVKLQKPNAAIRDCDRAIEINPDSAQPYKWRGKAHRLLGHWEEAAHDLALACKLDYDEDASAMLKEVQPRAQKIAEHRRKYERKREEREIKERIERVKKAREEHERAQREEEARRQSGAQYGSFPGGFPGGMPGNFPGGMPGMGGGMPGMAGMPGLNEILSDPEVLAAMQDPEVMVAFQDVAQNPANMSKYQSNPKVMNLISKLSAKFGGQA
The assay can be described thus: co-IP; FLAG-tagged St13 variants purified from lysates of transfected ∆ST13 HEK293 cells on FLAG-M2 resin (physiological or high salt), eluted with FLAG peptide, SDS-PAGE.

Amino acid sequences for entries named in this document (tags omitted).
UniProt P11142: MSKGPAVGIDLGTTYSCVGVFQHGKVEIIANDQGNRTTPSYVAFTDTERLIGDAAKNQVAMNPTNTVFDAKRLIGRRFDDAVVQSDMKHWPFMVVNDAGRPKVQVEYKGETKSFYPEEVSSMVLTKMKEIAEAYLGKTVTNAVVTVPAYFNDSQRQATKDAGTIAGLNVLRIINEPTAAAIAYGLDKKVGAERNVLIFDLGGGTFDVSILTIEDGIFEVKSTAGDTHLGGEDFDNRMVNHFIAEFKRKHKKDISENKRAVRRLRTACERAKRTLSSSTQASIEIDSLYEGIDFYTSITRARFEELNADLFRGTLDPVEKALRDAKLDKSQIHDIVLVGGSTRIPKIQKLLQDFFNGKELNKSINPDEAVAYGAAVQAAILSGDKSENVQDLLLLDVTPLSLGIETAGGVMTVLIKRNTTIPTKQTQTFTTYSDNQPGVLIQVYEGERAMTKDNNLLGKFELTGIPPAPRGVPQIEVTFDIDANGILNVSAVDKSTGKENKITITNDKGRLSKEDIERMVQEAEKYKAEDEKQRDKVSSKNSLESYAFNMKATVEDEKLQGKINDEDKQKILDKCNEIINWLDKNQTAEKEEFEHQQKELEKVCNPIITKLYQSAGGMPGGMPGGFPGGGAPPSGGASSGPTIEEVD

Results are given in words; binding and its absence hold for the method and conditions named. In cells and extracts the contact can be indirect. Some binding calls cover weakened binding; strength is not graded here. Tags and fused reporters may be left off the sequences shown.

In the case of “Hsc70 (endogenous, HEK293 cells) (from UniProt P11142 1-646)”, the binding result is given as “binds”.
As to “Stip1 (endogenous, HEK293 cells) (from UniProt P31948 1-543)”, the binding result is recorded as “binds”.

Source of the values: publication PMC7617541.
